Measurements reported in PubChem BioAssay AID504774 (Drosophila RNAi Screening Center, 2011).
Purpose: 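Knock-downs that shift viability of MMS-exposed cells relative to untreated ones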 (primary screen). System: Drosophila Kc167 cells. Reagent: long dsRNA against Drosophila genes, about 0.25 µg dsRNA per well. Time to read-out: about 6 days: 3 days knock-down, then 3 days with or without MMS. Treatment: methyl methanesulphonate 0.004% (w/v) for 3 days after knock-down. Read-out: 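ATP-dependent luminescence as a measure of live cells in MMS-exposed wells, quantile normalised within each plate, with replicate values also given as a mean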. Direction: mean viability with MMS and viability with MMS: higher = more surviving cells after MMS.
The deposit covers about 23,000 reagents; below is a random part of those with a known target gene and a result. 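Values are quantile-normalised luminescence on an arbitrary scale; higher means more cells surviving MMS.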 A plus sign joins genes that one reagent is predicted to hit. Further read-outs or replicates are left out here.

The first 6 entries, ahead of the listing:
| gene | amplicon | mean viability with MMS | viability with MMS, replicate 1 |
| --- | --- | --- | --- |
| Fmr1 | DRSC16674 | 3.56e6 | 4.08e6 |
| Unc-115b + p24-2 + Unc-115a | DRSC16502 | 3.48e6 | 3.98e6 |
| ND-51L1 | DRSC06072 | 3.60e6 | 3.96e6 |
| RpL12 | DRSC04344 | 2.81e6 | 3.42e6 |
| CG13324 | DRSC06361 | 3.42e6 | 3.96e6 |
| CG14125 | DRSC10129 | 3.55e6 | 3.89e6 |

The list itself, from the start:
| gene | amplicon | mean viability with MMS | viability with MMS, replicate 1 |
| --- | --- | --- | --- |
| Fmr1 | DRSC16674 | 3.56e6 | 4.08e6 |
| Unc-115b + p24-2 + Unc-115a | DRSC16502 | 3.48e6 | 3.98e6 |
| ND-51L1 | DRSC06072 | 3.60e6 | 3.96e6 |
| RpL12 | DRSC04344 | 2.81e6 | 3.42e6 |
| CG13324 | DRSC06361 | 3.42e6 | 3.96e6 |
| CG14125 | DRSC10129 | 3.55e6 | 3.89e6 |
| nbs | DRSC11373 | 3.60e6 | 4.06e6 |
| CG13833 | DRSC14683 | 3.52e6 | 4.06e6 |
| akirin | DRSC11000 | 3.18e6 | 3.68e6 |
| CG4477 | DRSC10425 | 3.66e6 | 4.25e6 |
| Cyp313a4 | DRSC16627 | 3.47e6 | 3.94e6 |
| CG5276 | DRSC15759 | 3.60e6 | 4.08e6 |
| CG13360 | DRSC18536 | 3.38e6 | 3.80e6 |
| pkm | DRSC19674 | 3.64e6 | 3.98e6 |
| Rpt5 | DRSC16842 | 2.86e6 | 3.57e6 |
| CycH | DRSC11861 | 3.65e6 | 4.09e6 |
| CycH | DRSC21308 | 3.41e6 | 3.93e6 |
| CG13078 | DRSC02182 | 3.43e6 | 3.90e6 |
| CG30075 | DRSC05484 | 3.47e6 | 4.07e6 |
| mTor | DRSC02811 | 3.36e6 | 3.87e6 |
| RpL37-1 | DRSC20149 | 3.53e6 | 3.99e6 |
| RpL37-1 | DRSC21646 | 2.94e6 | 3.62e6 |
| CG8172 | DRSC07089 | 3.75e6 | 4.19e6 |
| CG8172 | DRSC22113 | 3.45e6 | 3.94e6 |
| vnc + CG42455 | DRSC09867 | 3.31e6 | 3.75e6 |
| ARY (retired record) | DRSC20867 | 2.49e6 | 3.88e6 |
| CG7841 | DRSC10922 | 3.73e6 | 4.13e6 |
| car | DRSC20316 | 3.55e6 | 4.04e6 |
| CG17019 | DRSC06642 | 3.27e6 | 3.69e6 |
| Ho | DRSC14939 | 3.63e6 | 4.05e6 |
| Manf | DRSC14091 | 3.66e6 | 4.09e6 |
| CG9568 | DRSC03265 | 3.78e6 | 4.06e6 |
| CG31270 (retired record) | DRSC22252 | 3.45e6 | 3.93e6 |
| Obp56a | DRSC06085 | 3.59e6 | 3.98e6 |
| CG13101 | DRSC02201 | 3.67e6 | 4.14e6 |
| CycC | DRSC16619 | 3.53e6 | 3.98e6 |
| Mpc1 | DRSC14770 | 3.55e6 | 4.02e6 |
| ssx | DRSC18492 | 3.38e6 | 3.79e6 |
| CG14974 | DRSC08433 | 3.56e6 | 4.06e6 |
| CG14835 | DRSC10205 | 3.60e6 | 4.04e6 |
| Srr | DRSC16382 | 3.65e6 | 4.06e6 |
| tn | DRSC05768 | 3.47e6 | 4.01e6 |
| tn | DRSC06532 | 3.58e6 | 4.25e6 |
| Obp73a | DRSC09907 | 3.56e6 | 4.03e6 |
| IFT20 + CG10395 | DRSC22660 | 3.45e6 | 3.92e6 |
| Odc1 | DRSC07482 | 3.63e6 | 4.15e6 |
| Vps25 | DRSC06486 | 3.37e6 | 3.81e6 |
| PGRP-SB2 | DRSC11092 | 3.48e6 | 3.93e6 |
| Ubr1 | DRSC20148 | 4.06e6 | 4.90e6 |
| Cpr49Ac | DRSC07199 | 3.66e6 | 3.95e6 |
| Smu1 | DRSC15803 | 3.40e6 | 3.84e6 |
| Nep5 | DRSC16004 | 3.70e6 | 4.13e6 |
| TwdlC | DRSC14749 | 3.53e6 | 3.91e6 |
| Spn88Eb | DRSC16093 | 3.42e6 | 3.86e6 |
| Hsc70-3 | DRSC20253 | 3.04e6 | 3.69e6 |
| Tim10 + CG42497 | DRSC04664 | 3.38e6 | 3.70e6 |
| CG32750 | DRSC18848 | 3.58e6 | 4.05e6 |
| CG30280 | DRSC21761 | 3.48e6 | 3.95e6 |
| corolla | DRSC20102 | 3.69e6 | 4.26e6 |
| CG13053 | DRSC09934 | 3.53e6 | 3.99e6 |
| CG5111 | DRSC15717 | 3.53e6 | 3.96e6 |
| VhaSFD | DRSC03471 | 3.39e6 | 3.83e6 |
| CG14174 | DRSC10175 | 3.71e6 | 4.12e6 |
| dec | DRSC18759 | 3.33e6 | 3.63e6 |
| dec | DRSC21477 | 3.58e6 | 4.11e6 |
| CG46441 | DRSC15561 | 3.74e6 | 4.19e6 |
| CG32694 | DRSC17844 | 3.45e6 | 3.89e6 |
| CG32694 | DRSC17855 | 3.58e6 | 4.07e6 |
| CG32694 | DRSC22670 | 3.28e6 | 3.82e6 |
